This passage reports binding results from PMC6293628.

No constants are given. Whether binding was seen depends on the method and setting. In cells and extracts the contact can be indirect. Here binding means that the protein was enriched with, or labelled near, the bait; the list need not be complete.

This assay has as its target T1, Rho GTPase-activating protein 11A (ARHGAP11A) (human (endogenous in Hep3B)) (UniProt Q6P4F7).
T1 sequence: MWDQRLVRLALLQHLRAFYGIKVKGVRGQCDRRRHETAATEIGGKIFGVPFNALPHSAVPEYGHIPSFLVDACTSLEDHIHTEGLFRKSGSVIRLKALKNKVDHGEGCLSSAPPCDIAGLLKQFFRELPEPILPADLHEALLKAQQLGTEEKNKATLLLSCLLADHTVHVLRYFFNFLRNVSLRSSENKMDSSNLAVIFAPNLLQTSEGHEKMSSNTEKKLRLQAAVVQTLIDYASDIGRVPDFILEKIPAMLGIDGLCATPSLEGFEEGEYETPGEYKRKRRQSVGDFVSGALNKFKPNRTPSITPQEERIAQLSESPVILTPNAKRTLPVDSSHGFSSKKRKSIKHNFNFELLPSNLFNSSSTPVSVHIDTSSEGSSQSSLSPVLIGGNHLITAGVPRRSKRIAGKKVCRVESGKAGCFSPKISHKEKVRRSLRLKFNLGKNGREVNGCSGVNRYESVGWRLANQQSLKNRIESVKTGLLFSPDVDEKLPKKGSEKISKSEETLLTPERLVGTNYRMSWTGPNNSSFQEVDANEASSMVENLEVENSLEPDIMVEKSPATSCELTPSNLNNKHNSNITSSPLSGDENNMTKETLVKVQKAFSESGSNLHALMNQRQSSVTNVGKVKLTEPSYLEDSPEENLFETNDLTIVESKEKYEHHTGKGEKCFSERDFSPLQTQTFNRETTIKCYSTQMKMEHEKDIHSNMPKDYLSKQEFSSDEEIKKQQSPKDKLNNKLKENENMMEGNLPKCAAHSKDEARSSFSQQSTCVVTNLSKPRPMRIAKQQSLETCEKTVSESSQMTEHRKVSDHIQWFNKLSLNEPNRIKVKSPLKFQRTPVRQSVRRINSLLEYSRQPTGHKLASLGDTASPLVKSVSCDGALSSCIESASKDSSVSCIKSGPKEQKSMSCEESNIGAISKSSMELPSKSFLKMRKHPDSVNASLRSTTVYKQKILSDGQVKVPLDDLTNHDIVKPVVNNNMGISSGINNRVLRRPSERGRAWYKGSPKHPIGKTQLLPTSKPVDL
Kind of assay: affinity purification with mass spectrometry; co-IP with anti-ARHGAP11A antibody-conjugated beads from HCC cell lysate, then LC-MS/MS (nanoLC, TripleTOF 5600+).

B1: HAUS6 (Q7Z4H7) (protein, UniProt Q7Z4H7 1-955)
chain: MSSASVTAFEKEHLWMYLQALGFEPGPATIACGKIVSHTHLGVNMFDKLNRDAFHIISYFLFQVLDQSLTKEVFKFCWPPFDQKSDTEFRKHCCEWIKRISGECGSSFPQVVGSLFLSPGGPKFIHLMYHFARFVAMKYIKSNSKNSSHHFVETFNIKPQDLHKCIARCHFARSRFLQILQRQDCVTQKYQENAQLSVKQVRNLRSECIGLENQIKKMEPYDDHSNMEEKIQKVRSLWASVNETLMFLEKEREVVSSVLSLVNQYALDGTNVAINIPRLLLDKIEKQMFQLHIGNVYEAGKLNLLTVIQLLNEVLKVMKYERCQADQARLTVDLHYLEKETKFQKERLSDLKHMRYRIKDDLTTIRHSVVEKQGEWHKKWKEFLGLSPFSLIKGWTPSVDLLPPMSPLSFDPASEEVYAKSILCQYPASLPDAHKQHNQENGCRGDSDTLGALHDLANSPASFLSQSVSSSDRNSVTVLEKDTKMGTPKEKNEAISKKIPEFEVENSPLSDVAKNTESSAFGGSLPAKKSDPFQKEQDHLVEEVARAVLSDSPQLSEGKEIKLEELIDSLGSNPFLTRNQIPRTPENLITEIRSSWRKAIEMEENRTKEPIQMDAEHREVLPESLPVLHNQREFSMADFLLETTVSDFGQSHLTEEKVISDCECVPQKHVLTSHIDEPPTQNQSDLLNKKVICKQDLECLAFTKLSETSRMETFSPAVGNRIDVMGGSEEEFMKILDHLEVSCNKPSTNKTMLWNSFQISSGISSKSFKDNDFGILHETLPEEVGHLSFNSSSSSEANFKLEPNSPMHGGTLLEDVVGGRQTTPESDFNLQALRSRYEALKKSLSKKREESYLSNSQTPERHKPELSPTPQNVQTDDTLNFLDTCDLHTEHIKPSLRTSIGERKRSLSPLIKFSPVEQRLRTTIACSLGELPNLKEEDILNKSLDAKEPPSDLTR
modifications: ubiquitination peptide SLSKKR identified (site not stated)
For B1, the binding result was “binds”.
